Data source: PubChem BioAssay AID743454 (Peter MacCallum Cancer Centre, 2014)
This is a random part of about 18,000 deposited reagents. Of all reagents, 450 (2.5%) got an active call. 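Single biological run; no consistent viability z cut-off exists, so the class columns, not z-scores, define the calls.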

- Aim: 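Genes whose loss kills vorinostat-resistant colon cancer cells under vorinostat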 (primary screen)
- Cell system: human HCT116-VR colon cancer cells, selected for vorinostat resistance
- Reagent: siRNA pool against human genes, 40 nM siRNA pool
- Time to read-out: vorinostat for 24 h, read-out about 72 h after transfection
- Conditions: vorinostat at 2.5 µM final
- Detection: 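Cell viability by CellTiter-Fluor and caspase 3/7 activity by luminescence, each scaled to mock wells per plate, duplicates averaged, then robust z-scored over all plates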
- Reading the numbers: viability robust z-score: higher = more viable cells than screen typical; caspase robust z-score: higher = more caspase 3/7 activity than screen typical
- Hit rule: 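a knock-down is a hit when classed RV1 or RV2 for lowered viability, or CA1 or CA2 for caspase activation; those lethal without drug were dropped; hits were retested singly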

Target gene	viability hit class	caspase hit class	viability robust z-score	caspase robust z-score	activity call
POLR1B (RNA polymerase I subunit B)	no change	no change	-1.16	0.03	inactive
OR6Y1 (olfactory receptor family 6 subfamily Y member 1)	no change	no change	-0.93	-0.74	inactive
FOXP3 (forkhead box P3)	no change	no change	1.34	0.68	inactive
CYP1A1 (cytochrome P450 family 1 subfamily A member 1)	no change	no change	-0.74	-0.27	inactive
FBXO31 (F-box protein 31)	no change	no change	0.14	-0.97	inactive
CARD14 (caspase recruitment domain family member 14)	no change	no change	-1.55	2.8	inactive
SSX1 (SSX family member 1)	no change	no change	-0.92	-0.06	inactive
TAS2R9 (taste 2 receptor member 9)	no change	no change	-2.27	-0.91	inactive
KLHDC7A (kelch domain containing 7A)	no change	no change	0.35	-0.54	inactive
DACH1 (dachshund family transcription factor 1)	no change	no change	-0.15	-0.07	inactive
TRAPPC4 (trafficking protein particle complex subunit 4)	no change	no change	-0.32	-0.31	inactive
SLC39A1	no change	no change	0.23	-0.84	inactive
RELN (reelin)	no change	no change	0.51	1.29	inactive
LIN7C (lin-7 cell polarity scaffold C)	no change	no change	0.38	-0.89	inactive
RIMS3 (regulating synaptic membrane exocytosis 3)	no change	no change	-1.34	0.26	inactive
KIF25 (kinesin family member 25)	no change	no change	-0.26	1.58	inactive
USP15 (ubiquitin specific peptidase 15)	no change	no change	-0.88	-0.7	inactive
ABCA9 (ATP binding cassette subfamily A member 9)	no change	no change	1.24	0.22	inactive
GPRC6A (G protein-coupled receptor class C group 6 member A)	no change	no change	-0.08	3.17	inactive
KDM4A (lysine demethylase 4A)	no change	no change	-1.67	2.24	inactive
AGTR2 (angiotensin II receptor type 2)	no change	no change	-1.69	3.35	inactive
FST (follistatin)	no change	no change	0.71	-0.29	inactive
TBC1D31 (TBC1 domain family member 31)	no change	no change	0.78	-0.56	inactive
SIGMAR1 (sigma receptor chaperone 1)	no change	no change	0.73	3.1	inactive
TAB2 (TGF-beta activated kinase 1 (MAP3K7) binding protein 2)	no change	no change	1.48	1.25	inactive
DPP7 (dipeptidyl peptidase 7)	no change	no change	-0.53	-0.91	inactive
AP1AR	no change	no change	1	0.19	inactive
ACVR1 (activin A receptor type 1)	no change	no change	1.27	-0.32	inactive
IQSEC3 (IQ motif and Sec7 domain ArfGEF 3)	no change	no change	-1.44	-0.5	inactive
ADO (2-aminoethanethiol dioxygenase)	no change	no change	-0.25	0.67	inactive
GATA5 (GATA binding protein 5)	no change	no change	-0.1	-0.69	inactive
RDH14 (retinol dehydrogenase 14)	no change	no change	-1.3	0.66	inactive
HEPH (hephaestin)	no change	no change	1.01	-0.38	inactive
HHATL (hedgehog acyltransferase like)	no change	no change	1.18	-0.46	inactive
ADPRM (ADP-ribose/CDP-alcohol diphosphatase, manganese dependent)	no change	no change	-0.13	-0.02	inactive
MLIP (muscular LMNA interacting protein)	no change	CA2 (caspase activation)	-2.27	6.08	active
ZNF165 (zinc finger protein 165)	no change	no change	-0.82	0.15	inactive
KCNJ2 (potassium inwardly rectifying channel subfamily J member 2)	no change	no change	-1.47	0.12	inactive
CLEC5A (C-type lectin domain containing 5A)	no change	no change	-1.46	4.75	inactive
STARD8 (StAR related lipid transfer domain containing 8)	no change	no change	1.35	2.14	inactive
PTPRR (protein tyrosine phosphatase receptor type R)	no change	no change	0.74	-0.04	inactive
CT47A2 (cancer/testis antigen family 47 member A2)	no change	no change	0.4	3.23	inactive
CLDN14 (claudin 14)	no change	no change	-1.9	1.02	inactive
COX8C (cytochrome c oxidase subunit 8C)	no change	no change	-1.06	2.22	inactive
MICAL1	no change	no change	1.76	-0.85	inactive
ZNF225 (zinc finger protein 225)	no change	no change	0.36	1.27	inactive
ZNF573 (zinc finger protein 573)	no change	no change	-0.89	1.49	inactive
AQP12A (aquaporin 12A)	no change	no change	-0.98	1.42	inactive
NSMAF (neutral sphingomyelinase activation associated factor)	no change	no change	0.78	0.55	inactive
IL22RA1 (interleukin 22 receptor subunit alpha 1)	no change	no change	-0.25	-0.75	inactive
RIF1 (replication timing regulatory factor 1)	no change	no change	0.4	-0.22	inactive
SPHKAP (SPHK1 interactor, AKAP domain containing)	no change	no change	0.6	2.05	inactive
ATP2C2 (ATPase secretory pathway Ca2+ transporting 2)	no change	no change	0.42	-0.36	inactive
MORC1 (MORC family CW-type zinc finger 1)	no change	no change	-1.01	1.3	inactive
RPL30 (ribosomal protein L30)	no change	no change	-4.81	-1.22	inactive
NUAK1 (NUAK family kinase 1)	no change	no change	-1.31	2.91	inactive
MATR3 (matrin 3)	no change	no change	0.1	-0.44	inactive
SAC3D1 (SAC3 domain containing 1)	no change	no change	-0.26	0.36	inactive
CPNE3 (copine 3)	no change	no change	1.31	-1.1	inactive
LIMK2 (LIM domain kinase 2)	no change	no change	0.38	-0.76	inactive
OR8G1 (olfactory receptor family 8 subfamily G member 1)	no change	no change	0.18	0.49	inactive
MAGED2 (MAGE family member D2)	no change	no change	1.25	-0.1	inactive
MAPK1IP1L	no change	no change	1.81	0.21	inactive
UTP20 (UTP20 small subunit processome component)	no change	no change	-0.4	-0.87	inactive
FRYL (FRY like transcription coactivator)	no change	no change	1.19	-0.76	inactive
DCP2 (decapping mRNA 2)	no change	no change	0.62	2.6	inactive
EXD3 (exonuclease 3'-5' domain containing 3)	no change	no change	-0.21	-0.58	inactive
OR7E24 (olfactory receptor family 7 subfamily E member 24)	no change	no change	-0.3	-0.6	inactive
TRAF3IP3 (TRAF3 interacting protein 3)	no change	no change	-0.44	-0.32	inactive
RTKN2 (rhotekin 2)	no change	no change	0.49	-0.46	inactive
TXNDC9 (thioredoxin domain containing 9)	no change	no change	-0.82	3.84	inactive
RAB13 (RAB13, member RAS oncogene family)	no change	no change	-0.53	0.34	inactive
TTC29 (tetratricopeptide repeat domain 29)	no change	no change	-0.72	-0.21	inactive

Ordered by “caspase robust z-score” (low to high): 9 of the entries above.
Target gene	viability hit class	caspase hit class	viability robust z-score	caspase robust z-score	activity call
LIN7C (lin-7 cell polarity scaffold C)	no change	no change	0.38	-0.89	inactive
SLC39A1	no change	no change	0.23	-0.84	inactive
USP15 (ubiquitin specific peptidase 15)	no change	no change	-0.88	-0.7	inactive
KLHDC7A (kelch domain containing 7A)	no change	no change	0.35	-0.54	inactive
TRAPPC4 (trafficking protein particle complex subunit 4)	no change	no change	-0.32	-0.31	inactive
DACH1 (dachshund family transcription factor 1)	no change	no change	-0.15	-0.07	inactive
RIMS3 (regulating synaptic membrane exocytosis 3)	no change	no change	-1.34	0.26	inactive
RELN (reelin)	no change	no change	0.51	1.29	inactive
KIF25 (kinesin family member 25)	no change	no change	-0.26	1.58	inactive
